Measured values reported in PubChem BioAssay AID445 (National Center for Advancing Translational Sciences (NCATS), 2006).
This is one part of the list. These are further read-outs of the screen, such as a control signal, another cell line or another target. No call is given for them. Compounds called inactive in the main read-out are mostly missing here. The note in brackets gives the kind of curve behind each potency; many fits are weak.

Assay: IkB Signaling
Details: ABC-DLBCL IkBa-CBG/CBR dual luciferase ratio (green luciferase fused to IkBa over red control in OCI-Ly3 lymphoma cells), 4 h; measured here: control luc red channel unless noted
How it was run: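 Curves were fitted separately to fusion (green), unfused (red) and ratio luminescence, then classed by r2, magnitude and activity. Cells: OCI-Ly3, 4 h compound plus doxycycline at 37C; 10 uM MG-132 defined full response.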

Row | Structure (SMILES) | AC50
1 | c1ccc(-n2nnnc2-n2nnc3ccccc32)cc1 | 3.98 µM [rising, partial curve]
2 | CCOc1ccc(-c2cc(CCCC(=O)NCCc3ccc(OCC)c(OCC)c3)no2)cc1 | 0.501 µM [falling, full curve]
3 | C[C@@H](NC(=O)CN(c1ccccc1)S(=O)(=O)N(C)C)c1ccccc1 | 12.6 µM [falling, partial curve]
4 | Cc1ccc(NC(=O)Nc2ccc3nc(N4CCN(C)CC4)cc(C)c3c2)cc1C | 39.8 µM [falling, single point]
5 | Cc1ccccc1NC(=O)c1ccc(F)c(S(=O)(=O)NC2CCCC2)c1 | 12.6 µM [falling, single point]
6 | CCN1CCN(C(=O)c2ccc3c(c2)N(Cc2ccccc2F)C(=O)c2ccccc2S3(=O)=O)CC1 | 1.26 µM [falling, partial curve]
7 | Cc1cc2nc(-c3ccc(Cl)cc3)cc(C(F)(F)F)n2n1 | 6.31 µM [rising, partial curve]
8 | CC(=O)c1cccc(NC(=O)CSc2nnc3ccc(-c4ccc(C)cc4)nn23)c1 | 7.94 µM [falling, single point]
9 | O=C(NCc1ccco1)C1CCN(C(=O)N2CCOc3ccc(Cl)cc32)CC1 | 12.6 µM [falling, partial curve]
10 | O=c1cc2nc(-c3cccs3)nc(SCCOc3ccc(Cl)cc3)n2[nH]1 | 25.1 µM [rising, partial curve]
11 | COc1cc(Cl)c(C)cc1Nc1nc2ccccc2nc1NS(=O)(=O)c1ccccc1 | 0.02 µM [falling, full curve]
12 | COc1ccc(-c2noc(CN3CCN(c4ccccc4F)CC3)n2)cc1OC | 15.8 µM [falling, partial curve]
13 | Cc1cccc(C(=O)Nc2ccc(-c3nc4cc(C(C)C)ccc4o3)cc2)c1 | 7.94 µM [falling, partial curve]
14 | Cc1ccc(N2CCN(C(=O)NCc3noc4ccccc34)CC2C)cc1 (stereo not given) | 10 µM [falling, partial curve]
15 | O=C(Oc1cc(=O)oc2ccccc12)c1ccco1 | 0.158 µM [falling, full curve]
16 | COc1cccc(-c2cc(C(=O)NCc3ccco3)no2)c1 | 12.6 µM [falling, partial curve]
17 | COc1ccc(Cl)cc1S(=O)(=O)N1CCN(Cc2cccc(F)c2)CC1 | 10 µM [falling, partial curve]
18 | O=C(c1ccco1)N1CCN(c2c(-c3ccccc3)c3cc(Cl)ccc3[nH]c2=O)CC1 | 15.8 µM [falling, partial curve]
19 | CCCOc1ccc(C(=O)N(Cc2cccs2)c2ccc(C)cc2)cc1 | 20 µM [falling, partial curve]
20 | COc1ccc(-c2c3c(nc4sc(C(=O)Nc5ccc(F)cc5)c(N)c24)CC(C)(C)CC3=O)cc1 | 15.8 µM [falling, partial curve]

Row | Structure (SMILES) | AC50
21 | CCOC(=O)c1c(C)oc2ncnc(NCCCN3CCN(c4cc(C)ccc4C)CC3)c12 | 15.8 µM [falling, partial curve]
22 | CCCN(CCC)C(=O)Cn1c(=O)n(-c2ccc(C)cc2)c(=O)c2ccc(C(=O)NCc3ccccc3Cl)cc21 | 6.31 µM [falling, partial curve]
23 | CNC(=O)C1CCN(Cc2cc3ccccc3n2Cc2ccccc2C)CC1 | 10 µM [falling, partial curve, poor fit]
24 | Cc1ccc(-c2cn3c(n2)sc2cc(C(=O)NCc4cccs4)ccc23)cc1 | 25.1 µM [falling, partial curve]
25 | CCC1CN(C(=O)N2CCC(C(=O)NCCc3ccc(C)cc3)CC2)c2ccccc2O1 (stereo not given) | 0.631 µM [rising, full curve, poor fit]
26 | Cc1oc(-c2ccccc2)nc1CSc1nnc(C)n2c1cc1sccc12 | 39.8 µM [falling, single point]
27 | CCOCCCNC(=O)CCC(=O)NNc1nc2ccccc2c2nc(-c3ccccc3)nn12 | 15.8 µM [falling, single point]
28 | O=C(NCc1cccc(Br)c1)C1CCN(C(=O)c2sccc2-n2cccc2)CC1 | 15.8 µM [falling, partial curve]
29 | O=C(CCc1nnc2n(Cc3ccccc3Cl)c(=O)c3ccccc3n12)Nc1ccc(F)c(F)c1 | 15.8 µM [falling, single point]
30 | Cc1ccc(O)c(NC(=O)c2noc3c2CCCCC3)c1 | 1.58 µM [rising, partial curve]
31 | CC(=O)N1c2ccccc2CC1C(=O)N1CCN(c2cccc(Cl)c2)CC1 (stereo not given) | 12.6 µM [falling, partial curve]
32 | O=C(CC1C(=O)N(c2ccc(F)cc2)C(=O)N1Cc1ccc2c(c1)OCO2)Nc1ccc(F)cc1 (stereo not given) | 15.8 µM [falling, single point]
33 | Nc1c(-c2nc(-c3cccs3)no2)nnn1-c1cccc(F)c1 | 0.316 µM [rising, full curve]
34 | CCOC(=O)c1cnc2c(C)cccc2c1NCCc1ccc(OC)c(OC)c1 | 12.6 µM [falling, partial curve]
35 | Cc1ccc(C)c(CN2C(=O)c3ccccc3S(=O)(=O)c3ccc(C(=O)N4CCCC4)cc32)c1 | 31.6 µM [falling, single point]
36 | CCN(c1ncnc2c1cnn2-c1cc(Cl)ccc1C)C1CCCCC1 | 31.6 µM [falling, single point]
37 | O=C(CN1C(=O)COc2ccc(S(=O)(=O)N3CCOCC3)cc21)N1CCN(c2cccc(C(F)(F)F)c2)CC1 | 31.6 µM [falling, single point]
38 | COc1cc(C2c3c(-c4c(C)cc(C)cc4O)n[nH]c3C(=O)N2CCO)cc(OC)c1OC (stereo not given) | 0.2 µM [rising, full curve]
39 | COc1ccc(OC)c(CNC(=O)c2cc3cc4ccc(OC)cc4nc3o2)c1 | 39.8 µM [rising, single point]
40 | COC(=O)[C@@H](N)Cc1ccc(O)c(O)c1 | 10 µM [rising, full curve, poor fit] [measured here: IkB-luc green channel]

A different layout for part of the listing above:

| Row | Structure (SMILES) | AC50 |
| --- | --- | --- |
| 31 | CC(=O)N1c2ccccc2CC1C(=O)N1CCN(c2cccc(Cl)c2)CC1 (stereo not given) | 12.6 µM [falling, partial curve] |
| 32 | O=C(CC1C(=O)N(c2ccc(F)cc2)C(=O)N1Cc1ccc2c(c1)OCO2)Nc1ccc(F)cc1 (stereo not given) | 15.8 µM [falling, single point] |
